# Reference: article PMC7241785
# No constants are given. Whether binding was seen depends on the method and setting. Some results given as binding are weak or reduced against the parent protein; the word gives no strength. For some assays here: Sequences can lack the tags named with a protein.
# T1: full length wild type SASPase 28 (LexA bait) (human) (UniProt Q53RT3)
# T1 sequence: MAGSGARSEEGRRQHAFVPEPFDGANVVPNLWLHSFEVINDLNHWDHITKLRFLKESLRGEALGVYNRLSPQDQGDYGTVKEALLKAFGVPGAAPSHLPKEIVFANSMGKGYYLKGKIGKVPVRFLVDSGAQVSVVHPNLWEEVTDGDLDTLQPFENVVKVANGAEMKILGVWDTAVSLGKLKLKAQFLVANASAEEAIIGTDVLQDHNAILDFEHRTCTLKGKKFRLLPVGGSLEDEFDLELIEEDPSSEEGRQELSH
# T2: FLG2Nter (aa 2-213) (LexA bait) (human) (UniProt Q5D862)
# T2 sequence: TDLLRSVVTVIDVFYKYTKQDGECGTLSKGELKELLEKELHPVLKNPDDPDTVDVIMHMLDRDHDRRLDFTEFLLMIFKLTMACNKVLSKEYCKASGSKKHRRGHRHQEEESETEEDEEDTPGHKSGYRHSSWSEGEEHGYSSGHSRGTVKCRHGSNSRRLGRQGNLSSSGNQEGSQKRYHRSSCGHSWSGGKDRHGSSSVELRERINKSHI
# T3: FLG2S100 (aa 2-95) (LexA bait) (human) (UniProt Q5D862)
# T3 sequence: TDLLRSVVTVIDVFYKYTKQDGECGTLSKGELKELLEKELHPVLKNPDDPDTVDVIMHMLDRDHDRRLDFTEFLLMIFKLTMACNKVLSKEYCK
# T4: GST-Flag-SASPase 28 kDa recombinant protein (human) (UniProt Q53RT3)
# T4 sequence: T1 sequence
# B1: filaggrin 2 prey fragments from the human reconstructed skin library (domain or fragment, UniProt Q5D862 2-213)
# chain: T2 sequence
# B2: SASPase prey fragments from the human reconstructed skin library (domain or fragment, UniProt Q53RT3 97-169)
# chain: RQHAFVPEPFDGANVVPNLWLHSFEVINDLNHWDHITKLRFLKESLRGEALGVYNRLSPQDQGDYGTVKEALL
# B3: MBP-HA FLG S100 (aa 2-95) (domain or fragment, UniProt P20930 2-95)
# chain: STLLENIFAIINLFKQYSKKDKNTDTLSKKELKELLEKEFRQILKNPDDPDMVDVFMDHLDIDHNKKIDFTEFLLMVFKLAQAYYESTRKENLP
# B4: MBP-HA TCHH S100 (aa 2-95) (domain or fragment, UniProt Q07283 2-95)
# chain: SPLLRSICDITEIFNQYVSHDCDGAALTKKDLKNLLEREFGAVLRRPHDPKTVDLILELLDLDSNGRVDFNEFLLFIFKVAQACYYALGQATGL
# Experiments:
# [1] = molecular target: T1, full length wild type SASPase 28 (LexA bait) (human); assay: two-hybrid; LexA baits in pB27 screened by mating (Y187 x L40dGal4) against a random primed human reconstructed epidermis (Episkin day 13) library in pP6; selection on medium without Trp, Leu, His; 5 mM 3-aminotriazole for FLG2Nter (aa 2-213), 20 mM for FLG2S100 (aa 2-95)
# [2] = molecular target: T2, FLG2Nter (aa 2-213) (LexA bait) (human); assay: as above
# [3] = molecular target: T3, FLG2S100 (aa 2-95) (LexA bait) (human); assay: as above
# [4] = molecular target: T4, GST-Flag-SASPase 28 kDa recombinant protein (human); assay: SPR; Biacore T200, 25°C, HBS-EP+; goat anti-GST on CM5 captures GST-Flag-SASPase 28 (1 μM, flow cell 2) and GST (flow cell 1); MBP-HA S100 domains and MBP-HA injected at 3 and 6 μM; both purified
binder,measurement,setting,value
B1,binding,[1],binds
B2,binding,[2],binds
same,binding,[3],binds
B3,binding,[4],no binding (tested: 6 μM)
B4,binding,[4],no binding (tested: 6 μM)
